In doi:10.1101/2022.06.27.497790:
Results are given in words; binding and its absence hold for the method and conditions named. Binding seen in cells or lysates may run through a third protein. Some entries that bind do so weakly or less than the wild type. Sequences can lack the tags named with a protein.

Molecular target: T1, Hspa13^Flag (human (cDNA from HEK293T)) (UniProt P48723)
T1 sequence: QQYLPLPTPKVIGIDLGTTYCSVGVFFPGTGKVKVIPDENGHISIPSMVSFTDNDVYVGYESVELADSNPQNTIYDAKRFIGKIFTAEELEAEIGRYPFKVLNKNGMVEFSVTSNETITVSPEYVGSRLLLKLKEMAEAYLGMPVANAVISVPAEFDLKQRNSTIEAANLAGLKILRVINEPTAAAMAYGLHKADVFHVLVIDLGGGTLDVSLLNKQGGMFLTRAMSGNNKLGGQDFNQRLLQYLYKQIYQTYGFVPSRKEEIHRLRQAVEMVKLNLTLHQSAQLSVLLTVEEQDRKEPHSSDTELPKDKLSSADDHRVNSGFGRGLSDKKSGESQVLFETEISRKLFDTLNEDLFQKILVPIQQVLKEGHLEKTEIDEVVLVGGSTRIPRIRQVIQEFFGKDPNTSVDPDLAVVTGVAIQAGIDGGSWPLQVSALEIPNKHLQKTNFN
Assay: co-IP

binding: binds
B1: Bcap31 (protein, UniProt P51572 1-246)
chain: MSLQWTAVATFLYAEVFVVLLLCIPFISPKRWQKIFKSRLVELLVSYGNTFFVVLIVILVLLVIDAVREIRKYDDVTEKVNLQNNPGAMEHFHMKLFRAQRNLYIAGFSLLLSFLLRRLVTLISQQATLLASNEAFKKQAESASEAAKKYMEENDQLKKGAAVDGGKLDVGNAEVKLEEENRSLKADLQKLKDELASTKQKLEKAENQVLAMRKQSEGLTKEYDRLLEEHAKLQAAVDGPMDKKEE
